The supplement of paper PMC10735217
“And” between values parts separate entries of the source, which are not always exact repeats. Equal entries are not always repeated. Structures can show the parent of a compound that is named as a salt. Some of the results follow. Single values are uncertain here, since repeats match poorly.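 The human kidney-derived cells carry a stably integrated construct of eight TEAD-binding elements driving luciferase, read by luminescence in a drug-repurposing library screen. A compound counts as a hit when its signal is more than five robust Z scores above the plate mean.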

System: HEK293A TEAD-LUC reporter
Experiment: TEAD-luciferase reporter activity (YAP activation), robust Z score vs plate; higher = stronger YAP/TEAD activation
Details: 24 h

Compound | TEAD-luciferase reporter activity (compound concentration: 200 nM) | TEAD-luciferase reporter activity (compound concentration: 2 uM) | TEAD-luciferase reporter activity (compound concentration: 10 uM)
COc1ccc2nccc(C(O)CC[C@@H]3CCN(CCSc4cccs4)C[C@@H]3C(=O)O)c2c1 (some centres undefined) | inactive: -1.36 | inactive: -1.26 | inactive: -1.08
CC(=O)CC(c1ccccc1)c1c(O)c2ccccc2oc1=O (centres undefined) [Warfarin potassium] |  | inactive: 1.61 | 
CC(=O)CC(c1ccccc1)c1c(O)c2ccccc2oc1=O (centres undefined) | inactive: -0.827 |  | inactive: -1.19
CC(C)NCC(O)COc1cccc2[nH]c3ccccc3c12 (centres undefined) | inactive: 0.29 | inactive: -1.38 | inactive: -0.721
CCCCP(=O)(O)CCCN | inactive: -0.167 |  | inactive: -1.17
Cc1ccccc1NC(=O)Nc1ccc(CN2C(=O)N([C@@H](CC(C)C)C(=O)N[C@@H](CC(=O)O)c3ccccc3)C(=O)C2(C)C)cc1 | inactive: -1.21 | inactive: 1.14 | inactive: -1.1
CC1=C(C(=O)OC(C)C)C(c2ccc([N+](=O)[O-])cc2)C(C(=O)OC(C)C)=C(C)N1 | inactive: -2.51 | inactive: -0.839 | inactive: 3.46
COc1cc(N2CCC(N(C)C)CC2)ccc1Nc1ncc(Cl)c(Nc2ccccc2P(C)(C)=O)n1 | active: 5.58 | inactive: -2.78 | inactive: 0.234
Cc1coc2ccc3ccc(=O)oc3c12 | inactive: -0.403 | inactive: 0.93 | inactive: 1.4
O=C(Nc1ncc(F)s1)[C@H](CC1CCOCC1)c1ccc(S(=O)(=O)C2CC2)cc1 | inactive: -0.287 | inactive: 0.502 | inactive: 0.732
COc1ccccc1-c1ncc(-c2nn[nH]n2)c(O)n1 | inactive: 0.00781 | inactive: -1.04 | inactive: -1.12
CC(C)C[C@H](N[C@@H](c1ccc(-c2ccc(S(C)(=O)=O)cc2)cc1)C(F)(F)F)C(=O)NCC#N | inactive: -0.186 | inactive: -1.2 | inactive: 0.053
Cc1cc(C[C@@H](CC(=O)N2CCC(N3CCc4ccccc4NC3=O)CC2)C(=O)O)cc(C)c1O | inactive: 0.332 | inactive: -0.547 | inactive: -0.147
COc1ccc2c(c1)c(-c1ccc(C(C)C)cc1)nc(=O)n2C(C)C [analog of AXT-914] | inactive: -0.443 | inactive: -0.906 | inactive: 1.44
C=C(Nc1ccc(OCC)cc1)Nc1ccc(OCC)cc1 | inactive: -0.84 | inactive: 2.76 | inactive: -1.08
CC(=O)NC[C@@H]1CN(c2ccc(N(C)S(C)(=O)=O)c(F)c2)C(=O)O1 | inactive: 1.07 | inactive: -1.49 | inactive: 1.13
Cc1cc(-c2ccc3c(c2)CC[C@H]3N2CC3(CCN(C(=O)Cc4cn5cc(C)sc5n4)CC3)C2)ncn1 | inactive: -0.913 | inactive: -1.57 | inactive: 0.556
O=[N+]([O-])c1ccc(/C=C/c2cccc(CO)n2)o1 [Nifurpirinol] | inactive: -0.126 |  | inactive: 0.451
c1ccc2c(c1)c1cc[n+]2CCCCCCCCCC[n+]2ccc(c3ccccc32)NCCCCCCCCCCN1 | inactive: -0.159 | inactive: 0.183 | inactive: -0.269
CCCCCCCCCCCC(=O)O[C@@H]1C[C@@H](CCOc2ccccc2CCc2cccc(OC)c2)N(C)C1 | inactive: -0.157 | inactive: -0.485 | inactive: 0.152
C#C[C@]1(O)CC[C@H]2[C@@H]3CCc4cc(OS(=O)(=O)C(C)C)ccc4[C@H]3CC[C@@]21C [ethinyl estradiol sulfonate] | inactive: -0.456 | inactive: 2.2 | inactive: 4.88
CC(C)C1O[C@@H]2C[NH][Pt]3([NH]C[C@H]2O1)[O]C(=O)CC(=O)[O]3 [heptaplatin] | inactive: -0.744 | inactive: -1.04 | inactive: -0.902
CC(C)(C)CC(=O)Nc1c(F)cc(C(=O)/N=c2\sccn2COP(=O)(O)O)cc1F | inactive: 0.203 | inactive: -0.472 | inactive: -1.39
CC(=O)N1CCCN(C(=O)c2c[nH]c3ncccc23)CC1 | inactive: -2.09 |  | inactive: 0.993
O=C(O)c1cc(=O)c2ccc(OCC(O)COc3ccc4c(=O)cc(C(=O)O)oc4c3)cc2o1 | inactive: 1.45 | inactive: -1.07 | inactive: -0.111
Cc1c(NC(=O)OC[C@@H]2COCCN2)cn2ncnc(Nc3ccc4c(cnn4Cc4cccc(F)c4)c3)c12 | active: 5.62 | inactive: -0.545 and inactive: -0.907 | inactive: 0.693
Oc1ccc(OCc2ccccc2)cc1 | inactive: 4 | inactive: 0.235 | inactive: 3.22

Compound | TEAD-luciferase reporter activity (compound concentration: 200 nM) | TEAD-luciferase reporter activity (compound concentration: 2 uM) | TEAD-luciferase reporter activity (compound concentration: 10 uM)
CC(C)[C@H](NC(=O)[C@@H]1CCCN1)C(=O)N[C@H](C(=O)N[C@@H](CCCCN)C(=O)N1CCC[C@H]1C(=O)N[C@@H](CCC(N)=O)C(=O)N[C@H](C)C(N)=O)[C@@H](C)O | inactive: -1.88 | inactive: 0.483 | inactive: -0.64
O=S(=O)(O)c1ccc(O)cc1 | inactive: -2.04 | inactive: 1.46 | inactive: -0.751
O=C(c1ccccc1)c1cc2c(cc1O)C(C(=O)O)CC2 (centres undefined) | inactive: -0.706 | inactive: -0.726 | inactive: -1
NC(=O)Cc1cnc2cc(OCc3cccc(F)c3)ccc2c1 | inactive: -0.263 | inactive: -0.612 | active: 5.36
NCC[C@H](Oc1ccc(C(F)(F)F)cc1)c1ccccc1 | inactive: -2.69 | inactive: -1.88 | inactive: 0.787
CO/N=C(\C(=O)N[C@@H]1C(=O)N2C(C(=O)O)=C(COC(N)=O)CS[C@H]12)c1ccco1 [cefuroxime] |  | inactive: 0.521 | 
CO/N=C(\C(=O)N[C@@H]1C(=O)N2C(C(=O)O)=C(COC(N)=O)CS[C@H]12)c1ccco1 [Cefuroxime sodium salt] | inactive: -1 |  | inactive: -1.44
COc1ccccc1[C@@H]1CCN(Cc2ccc(=O)n(C(C)C)c2)C1 | inactive: -0.319 | inactive: -0.629 | inactive: -1.49
Cc1coc2c1c(C)cc1oc(=O)cc(C)c12 | inactive: -0.0695 | inactive: -0.861 | inactive: -0.29
COC(=O)c1c(-c2cc(OC)c(OC)c(OC)c2)c2ccnc(OCc3ncccn3)c2c(=O)n1Cc1ccnc(C)c1 | inactive: -0.499 | inactive: -1.28 | inactive: 0.632
COc1ccc(NC(=O)N2CCCCN3[C@H](CN(C)C)[C@H](c4ccc(C#Cc5ccccc5)cc4)[C@@H]3C2)cc1 | inactive: 0.881 | inactive: -0.837 | inactive: -0.43
CC(C)(O)c1cn(-c2ccc(-c3cc(F)c(CO)c(S(C)(=O)=O)c3)cc2F)c(C(C)(C)c2c(Cl)cccc2Cl)n1 | inactive: 0.297 | inactive: 1.36 | inactive: -0.444
COc1ccc(N2CCOCC2)c2sc(NC(=O)N3CCC(C)(O)CC3)nc12 [tozadenant] | inactive: -0.0693 | inactive: -1.57 | inactive: -0.81
NC1(C(=O)O)CCc2cc(C(=O)O)ccc21 (centres undefined) | inactive: 0.797 | inactive: -1.39 | inactive: -0.951
NCC[C@H](O)C(=O)N[C@@H]1C[C@H](N)[C@@H](O[C@H]2O[C@H](CN)[C@@H](O)[C@H](O)[C@H]2O)[C@H](O)[C@H]1O[C@H]1O[C@H](CO)[C@@H](O)[C@H](N)[C@H]1O [Amikacin] | inactive: -1 | inactive: 1.01 | inactive: -1.04
NS(=O)(=O)c1cc(C(=O)NN2C[C@@H]3[C@H]4CC[C@H](C4)[C@@H]3C2)ccc1Cl | inactive: 0.459 | inactive: 0.606 | inactive: 1.61
Cc1ccc(OCC(O)CNC(C)(C)C)c2oc(=O)ccc12 (centres undefined) [bucumolol] | inactive: 0.282 | inactive: -0.592 | inactive: 1.52
N#CC(c1ccc(Cl)cc1)c1c(Cl)cc(-n2ncc(=O)[nH]c2=O)cc1Cl (centres undefined) | inactive: -1.53 |  | inactive: 2.11
N#CC(c1ccc(Cl)cc1)c1c(Cl)cc(-n2ncc(=O)[nH]c2=O)cc1Cl (centres undefined) [Diclazuril] |  | inactive: -0.407 | 
Cc1cc(SCc2sc(-c3ccc(C(F)(F)F)cc3)nc2C)ccc1OCC(=O)O | inactive: -2.62 | inactive: -0.911 | inactive: -1.1
C=CC(=O)N1C[C@H](COc2nc(Nc3cnn(C)c3)nc3[nH]cc(Cl)c23)[C@@H](OC)C1 | inactive: -0.656 | inactive: -1.12 | inactive: -0.238
CCCC[C@H](NC(=O)[C@@H]1[C@@H]2[C@H](CN1C(=O)[C@@H](NC(=O)NC1(CS(=O)(=O)C(C)(C)C)CCCCC1)C(C)(C)C)C2(C)C)C(=O)C(=O)NC1CC1 [narlaprevir] | inactive: -0.617 | inactive: -0.0402 | inactive: -1.89
O=C(c1ccccc1F)N1CCC(N2CCCNC2=O)CC1 | inactive: 1.54 |  | inactive: 0.634
CN(C)[C@@H]1C(=O)C(C(N)=O)C(=O)[C@@]2(O)C(=O)C3C(=O)c4c(O)cccc4C[C@H]3C[C@@H]12 (some centres undefined) | inactive: -1.79 | inactive: -0.822 | inactive: 1.33
C[C@H](N)C(=O)N[C@@H](C)P(=O)(O)O [alafosfalin] | inactive: 2.24 | inactive: -1.07 | inactive: -0.849
Cc1nn2ccccc2c1C(=O)C1=CNCCC1 | inactive: 0.163 | inactive: -1.16 | inactive: -0.695
N[C@@H](CSCCCO)C(=O)O [fudosteine] | inactive: -0.956 | inactive: -0.865 | inactive: -0.245

Five entries picked at random from the list so far:
Compound | TEAD-luciferase reporter activity (compound concentration: 200 nM) | TEAD-luciferase reporter activity (compound concentration: 2 uM) | TEAD-luciferase reporter activity (compound concentration: 10 uM)
Cc1coc2c1c(C)cc1oc(=O)cc(C)c12 | inactive: -0.0695 | inactive: -0.861 | inactive: -0.29
COC(=O)c1c(-c2cc(OC)c(OC)c(OC)c2)c2ccnc(OCc3ncccn3)c2c(=O)n1Cc1ccnc(C)c1 | inactive: -0.499 | inactive: -1.28 | inactive: 0.632
CCCC[C@H](NC(=O)[C@@H]1[C@@H]2[C@H](CN1C(=O)[C@@H](NC(=O)NC1(CS(=O)(=O)C(C)(C)C)CCCCC1)C(C)(C)C)C2(C)C)C(=O)C(=O)NC1CC1 [narlaprevir] | inactive: -0.617 | inactive: -0.0402 | inactive: -1.89
CO/N=C(\C(=O)N[C@@H]1C(=O)N2C(C(=O)O)=C(COC(N)=O)CS[C@H]12)c1ccco1 [cefuroxime] |  | inactive: 0.521 | 
NC1(C(=O)O)CCc2cc(C(=O)O)ccc21 (centres undefined) | inactive: 0.797 | inactive: -1.39 | inactive: -0.951
